Data as given in the supplement of paper PMC10849652.
The list shows a part of the results.

By UniProt entry, the sequences of proteins in these tests, tags left out. Where a name states a change or a piece, a line headed by the entry shows the natural chain unless it says otherwise.
UniProt P12273: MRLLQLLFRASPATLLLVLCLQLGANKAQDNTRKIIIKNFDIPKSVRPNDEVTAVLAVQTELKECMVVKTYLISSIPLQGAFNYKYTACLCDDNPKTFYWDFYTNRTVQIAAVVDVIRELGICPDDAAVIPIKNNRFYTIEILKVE
UniProt Q99623, whole entry, looked up: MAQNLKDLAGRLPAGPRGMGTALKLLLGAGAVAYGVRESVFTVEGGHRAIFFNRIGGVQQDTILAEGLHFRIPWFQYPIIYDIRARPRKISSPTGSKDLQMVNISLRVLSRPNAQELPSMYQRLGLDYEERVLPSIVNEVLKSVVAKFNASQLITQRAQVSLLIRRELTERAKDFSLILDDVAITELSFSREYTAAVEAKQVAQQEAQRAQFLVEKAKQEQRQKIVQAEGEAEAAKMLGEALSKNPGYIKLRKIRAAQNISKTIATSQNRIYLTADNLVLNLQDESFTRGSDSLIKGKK
UniProt Q96S52: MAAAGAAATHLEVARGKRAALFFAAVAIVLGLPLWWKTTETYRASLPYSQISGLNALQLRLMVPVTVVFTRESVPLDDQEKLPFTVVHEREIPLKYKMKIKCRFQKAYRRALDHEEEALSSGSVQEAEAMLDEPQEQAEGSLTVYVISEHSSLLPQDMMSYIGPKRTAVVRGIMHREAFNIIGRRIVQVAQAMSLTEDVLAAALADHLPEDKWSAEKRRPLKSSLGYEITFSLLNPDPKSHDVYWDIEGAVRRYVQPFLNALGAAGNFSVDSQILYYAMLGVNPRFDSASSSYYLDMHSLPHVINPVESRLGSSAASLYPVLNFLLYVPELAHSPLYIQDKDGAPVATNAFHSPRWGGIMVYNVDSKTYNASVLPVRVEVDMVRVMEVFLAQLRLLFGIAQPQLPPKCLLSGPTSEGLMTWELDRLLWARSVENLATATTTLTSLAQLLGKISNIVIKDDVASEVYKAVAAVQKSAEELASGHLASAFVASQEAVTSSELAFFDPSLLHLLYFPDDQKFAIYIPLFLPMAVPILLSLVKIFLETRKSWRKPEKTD
UniProt O00329: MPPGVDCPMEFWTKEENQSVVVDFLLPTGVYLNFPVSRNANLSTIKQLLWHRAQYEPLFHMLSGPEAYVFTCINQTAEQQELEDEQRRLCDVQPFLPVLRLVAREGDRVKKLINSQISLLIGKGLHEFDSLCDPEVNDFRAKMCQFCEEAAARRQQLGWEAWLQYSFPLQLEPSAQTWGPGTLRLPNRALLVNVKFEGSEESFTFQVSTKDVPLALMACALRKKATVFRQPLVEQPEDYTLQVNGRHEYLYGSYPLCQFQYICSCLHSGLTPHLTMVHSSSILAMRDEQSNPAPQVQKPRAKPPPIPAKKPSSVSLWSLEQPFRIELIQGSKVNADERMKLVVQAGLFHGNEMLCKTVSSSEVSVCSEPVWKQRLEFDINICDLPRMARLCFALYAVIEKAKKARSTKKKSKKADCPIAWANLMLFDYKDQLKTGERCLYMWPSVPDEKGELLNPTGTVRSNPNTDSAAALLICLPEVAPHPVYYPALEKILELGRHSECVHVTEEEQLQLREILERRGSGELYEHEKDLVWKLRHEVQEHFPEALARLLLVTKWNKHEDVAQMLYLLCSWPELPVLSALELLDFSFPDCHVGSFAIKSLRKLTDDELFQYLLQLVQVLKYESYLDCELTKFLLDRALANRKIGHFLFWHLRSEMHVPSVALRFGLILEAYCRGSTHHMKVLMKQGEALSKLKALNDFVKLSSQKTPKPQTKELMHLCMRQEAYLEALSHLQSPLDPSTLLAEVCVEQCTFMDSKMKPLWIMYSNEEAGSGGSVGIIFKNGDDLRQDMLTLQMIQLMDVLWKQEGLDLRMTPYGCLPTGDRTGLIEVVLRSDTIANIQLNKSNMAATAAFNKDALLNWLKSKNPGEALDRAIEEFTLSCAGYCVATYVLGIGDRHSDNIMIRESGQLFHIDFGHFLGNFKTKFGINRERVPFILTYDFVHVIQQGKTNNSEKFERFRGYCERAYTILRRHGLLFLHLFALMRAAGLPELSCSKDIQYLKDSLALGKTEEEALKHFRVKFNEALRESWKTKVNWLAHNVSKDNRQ
UniProt Q99755: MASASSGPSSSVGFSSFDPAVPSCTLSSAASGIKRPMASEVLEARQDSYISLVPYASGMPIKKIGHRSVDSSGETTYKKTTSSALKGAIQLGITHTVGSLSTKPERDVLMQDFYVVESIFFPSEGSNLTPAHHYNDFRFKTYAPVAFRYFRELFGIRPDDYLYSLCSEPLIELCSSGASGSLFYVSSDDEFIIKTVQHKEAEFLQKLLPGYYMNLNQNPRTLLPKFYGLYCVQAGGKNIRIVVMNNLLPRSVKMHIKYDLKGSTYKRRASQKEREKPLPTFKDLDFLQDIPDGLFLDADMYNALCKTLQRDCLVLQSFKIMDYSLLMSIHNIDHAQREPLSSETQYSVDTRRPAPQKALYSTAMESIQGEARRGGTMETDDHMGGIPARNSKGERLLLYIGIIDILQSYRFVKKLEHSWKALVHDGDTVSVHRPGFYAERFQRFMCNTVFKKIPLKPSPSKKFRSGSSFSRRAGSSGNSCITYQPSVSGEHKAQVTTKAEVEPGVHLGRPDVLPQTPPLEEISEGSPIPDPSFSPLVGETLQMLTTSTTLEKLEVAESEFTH
UniProt Q9NRD5, whole entry, looked up: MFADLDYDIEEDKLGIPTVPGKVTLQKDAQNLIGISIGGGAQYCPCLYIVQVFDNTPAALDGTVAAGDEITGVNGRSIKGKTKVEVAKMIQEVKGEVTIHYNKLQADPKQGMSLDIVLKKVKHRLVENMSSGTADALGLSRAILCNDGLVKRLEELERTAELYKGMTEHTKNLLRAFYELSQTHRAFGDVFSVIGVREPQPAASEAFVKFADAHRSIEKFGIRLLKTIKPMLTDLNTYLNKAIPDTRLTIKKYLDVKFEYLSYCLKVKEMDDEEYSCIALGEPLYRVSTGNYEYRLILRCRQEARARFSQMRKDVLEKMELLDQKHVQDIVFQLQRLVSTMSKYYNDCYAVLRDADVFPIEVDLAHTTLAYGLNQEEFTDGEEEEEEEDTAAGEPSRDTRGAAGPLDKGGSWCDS
UniProt P42336, whole entry, looked up: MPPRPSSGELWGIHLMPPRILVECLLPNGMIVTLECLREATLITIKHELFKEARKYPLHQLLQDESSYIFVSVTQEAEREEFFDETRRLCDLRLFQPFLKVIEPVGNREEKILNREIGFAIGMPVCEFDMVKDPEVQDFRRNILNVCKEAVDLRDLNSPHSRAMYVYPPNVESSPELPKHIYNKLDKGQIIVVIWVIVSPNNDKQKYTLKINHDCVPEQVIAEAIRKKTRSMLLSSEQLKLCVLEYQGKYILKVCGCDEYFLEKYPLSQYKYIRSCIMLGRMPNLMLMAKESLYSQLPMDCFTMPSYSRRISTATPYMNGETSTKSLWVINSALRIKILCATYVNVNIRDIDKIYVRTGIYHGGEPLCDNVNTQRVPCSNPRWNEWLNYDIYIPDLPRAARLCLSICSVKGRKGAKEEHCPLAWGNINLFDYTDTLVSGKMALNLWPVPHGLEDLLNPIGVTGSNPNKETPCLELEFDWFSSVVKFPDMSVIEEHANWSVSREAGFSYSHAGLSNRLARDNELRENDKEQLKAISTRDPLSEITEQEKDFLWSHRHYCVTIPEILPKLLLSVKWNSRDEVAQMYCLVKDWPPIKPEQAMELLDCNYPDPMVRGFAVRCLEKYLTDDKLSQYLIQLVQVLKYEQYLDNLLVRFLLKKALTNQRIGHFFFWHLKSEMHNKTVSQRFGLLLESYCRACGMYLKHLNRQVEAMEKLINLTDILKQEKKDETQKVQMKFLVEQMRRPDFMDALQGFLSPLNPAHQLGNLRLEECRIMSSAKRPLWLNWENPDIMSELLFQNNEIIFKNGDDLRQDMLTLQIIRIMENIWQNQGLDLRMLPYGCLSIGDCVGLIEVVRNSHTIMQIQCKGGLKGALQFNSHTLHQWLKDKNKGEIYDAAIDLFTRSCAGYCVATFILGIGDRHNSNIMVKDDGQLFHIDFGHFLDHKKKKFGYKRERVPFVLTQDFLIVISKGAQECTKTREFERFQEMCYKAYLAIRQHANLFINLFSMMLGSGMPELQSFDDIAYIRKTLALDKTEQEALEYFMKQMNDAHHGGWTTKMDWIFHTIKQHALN
UniProt Q8IXK0: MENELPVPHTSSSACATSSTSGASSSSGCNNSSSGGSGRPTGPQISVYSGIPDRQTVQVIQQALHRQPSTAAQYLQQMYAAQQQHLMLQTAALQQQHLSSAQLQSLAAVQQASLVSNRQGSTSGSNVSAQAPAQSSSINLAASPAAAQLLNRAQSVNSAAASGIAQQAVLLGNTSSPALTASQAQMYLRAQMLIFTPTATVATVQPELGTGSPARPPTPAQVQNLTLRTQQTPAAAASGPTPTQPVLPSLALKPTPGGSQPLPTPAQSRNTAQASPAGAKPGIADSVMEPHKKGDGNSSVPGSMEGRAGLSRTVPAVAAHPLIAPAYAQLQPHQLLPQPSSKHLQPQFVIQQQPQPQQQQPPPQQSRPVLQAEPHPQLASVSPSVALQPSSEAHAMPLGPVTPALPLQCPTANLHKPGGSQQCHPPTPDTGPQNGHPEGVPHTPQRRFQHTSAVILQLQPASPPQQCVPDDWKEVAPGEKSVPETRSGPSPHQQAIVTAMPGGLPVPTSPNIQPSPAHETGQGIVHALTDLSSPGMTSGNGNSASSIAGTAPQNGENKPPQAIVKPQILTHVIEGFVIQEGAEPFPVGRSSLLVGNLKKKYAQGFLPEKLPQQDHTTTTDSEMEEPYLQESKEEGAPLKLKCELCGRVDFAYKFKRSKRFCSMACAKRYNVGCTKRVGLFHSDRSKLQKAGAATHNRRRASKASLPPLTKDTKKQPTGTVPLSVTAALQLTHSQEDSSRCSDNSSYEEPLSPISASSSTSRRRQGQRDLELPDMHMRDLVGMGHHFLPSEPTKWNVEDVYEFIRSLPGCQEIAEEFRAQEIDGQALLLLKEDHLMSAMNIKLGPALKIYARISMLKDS
UniProt Q8NDX5: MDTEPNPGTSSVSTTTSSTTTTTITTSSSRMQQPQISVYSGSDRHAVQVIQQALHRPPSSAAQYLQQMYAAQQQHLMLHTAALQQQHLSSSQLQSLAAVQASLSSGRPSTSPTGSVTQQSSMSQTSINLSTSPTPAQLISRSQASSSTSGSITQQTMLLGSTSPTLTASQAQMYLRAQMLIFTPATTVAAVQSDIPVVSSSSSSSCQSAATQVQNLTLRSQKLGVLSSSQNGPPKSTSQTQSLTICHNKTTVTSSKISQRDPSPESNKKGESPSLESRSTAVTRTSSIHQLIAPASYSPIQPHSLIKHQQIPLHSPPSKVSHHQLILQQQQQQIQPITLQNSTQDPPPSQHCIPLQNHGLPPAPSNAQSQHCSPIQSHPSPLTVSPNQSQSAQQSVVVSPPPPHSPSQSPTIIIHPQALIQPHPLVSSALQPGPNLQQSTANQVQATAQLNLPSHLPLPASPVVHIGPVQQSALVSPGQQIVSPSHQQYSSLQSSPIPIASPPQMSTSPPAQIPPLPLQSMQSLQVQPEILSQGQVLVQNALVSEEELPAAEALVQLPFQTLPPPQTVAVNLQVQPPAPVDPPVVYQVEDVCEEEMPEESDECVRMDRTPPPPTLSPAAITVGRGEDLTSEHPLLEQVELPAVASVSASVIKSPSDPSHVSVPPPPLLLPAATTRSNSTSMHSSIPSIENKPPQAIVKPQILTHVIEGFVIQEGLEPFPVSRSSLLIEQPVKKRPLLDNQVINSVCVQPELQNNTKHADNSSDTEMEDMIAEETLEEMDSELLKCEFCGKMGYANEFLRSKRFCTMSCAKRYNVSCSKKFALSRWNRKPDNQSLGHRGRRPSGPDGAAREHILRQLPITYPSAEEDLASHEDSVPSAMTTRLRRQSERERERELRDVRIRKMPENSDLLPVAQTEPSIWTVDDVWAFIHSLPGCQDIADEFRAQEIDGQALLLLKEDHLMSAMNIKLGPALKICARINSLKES
UniProt P37287: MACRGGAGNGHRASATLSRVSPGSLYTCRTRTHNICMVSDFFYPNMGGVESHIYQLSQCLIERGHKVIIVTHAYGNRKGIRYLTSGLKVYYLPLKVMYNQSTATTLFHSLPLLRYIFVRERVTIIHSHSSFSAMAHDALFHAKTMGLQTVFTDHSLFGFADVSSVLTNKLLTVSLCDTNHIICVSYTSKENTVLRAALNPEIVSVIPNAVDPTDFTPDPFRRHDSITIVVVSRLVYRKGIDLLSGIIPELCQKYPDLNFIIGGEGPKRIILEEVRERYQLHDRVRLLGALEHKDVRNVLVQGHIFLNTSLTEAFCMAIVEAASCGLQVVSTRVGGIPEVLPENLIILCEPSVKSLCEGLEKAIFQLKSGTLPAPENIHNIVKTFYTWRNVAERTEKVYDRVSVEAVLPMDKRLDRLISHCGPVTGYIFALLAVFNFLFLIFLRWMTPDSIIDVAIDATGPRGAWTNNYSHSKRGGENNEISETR

Key:
Test in all cases: log2 fold change, soluble protein after heating vs DMSO (PISA); higher = thermal stabilisation; K562 cells, 10 uM, 30 min; active = over 0.2 and 3.5 SD of the protein, either way, in both replicates (recomputed)
[1] = compound: CC1=C(C=C(C=C1)NC(=O)C2=CC(=CC=C2)C(C)(C)C#N)NC3=CC4=C(C=C3)N=CN(C4=O)C
How it was run: (§1)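 K562 cells at 2×10^6 cells/mL were treated with 10 μM compound for 30 min. Aliquots were heated for 3 min across 48°C-58°C, pooled, and extracted in PBS with 0.5% NP-40 at 4°C; soluble protein was the supernatant after 21,000xg for 90 min. Soluble protein was quantified by TMTpro 16plex LC-MS/MS with channel sums equalised, and reported as log2 fold change in thermal stability against DMSO controls, with values from duplicates.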

[2] = compound: CC1=C(C=C(C=C1)NC(=O)C2=CC(=CC=C2)N(C)C)NC(=O)C3=CC=C(C=C3)O
How it was run: as §1

[3] = compound: CC1=CC=C(C=C1)SC2=C3C=C(SC3=CN=C2)C(=O)N
How it was run: as §1

[4] = compound: CC1=NC(=CC=C1)C2=C(N=C(N2)C(C)(C)C)C3=CC4=NC=CN=C4C=C3
How it was run: as §1

Nexturastat A = compound: CCCCN(Cc1ccc(C(=O)NO)cc1)C(=O)Nc1ccccc1 [Nexturastat A]
How it was run: as §1

vemurafenib = compound: CCCS(=O)(=O)Nc1ccc(F)c(C(=O)c2c[nH]c3ncc(-c4ccc(Cl)cc4)cc23)c1F [vemurafenib]
How it was run: as §1

[5] = compound: CCCS(=O)(=O)Nc1ccc(F)c(C(=O)c2c[nH]c3ncc(Cl)cc23)c1F
How it was run: as §1

[6] = compound: CCCc1cc(C)[nH]c(=O)c1CNC(=O)c1cc(-c2ccnc(N3CCN(C)CC3)c2)cc2c1cnn2C(C)C
How it was run: as §1

givinostat = compound: CCN(CC)Cc1ccc2cc(COC(=O)Nc3ccc(C(=O)NO)cc3)ccc2c1 [givinostat]
How it was run: as §1

barasertib = compound: CCN(CCCOc1ccc2c(Nc3cc(CC(=O)Nc4cccc(F)c4)[nH]n3)ncnc2c1)CCOP(=O)(O)O [barasertib]
How it was run: as §1

Measured: log2 fold change

PIP (UniProt P12273)
inactive: [1] -0.152 | [2] 0.032 | [3] 0.406 | [4] -0.137 | Nexturastat A -0.133 | vemurafenib -0.108 | [5] -0.484 | [6] 0.04 | givinostat 0.149 | barasertib 0.374

PEX19 (UniProt P40855)
inactive: [1] -0.011 | [2] -0.001 | [3] 0.008 | [4] -0.009 | Nexturastat A 0.004 | vemurafenib 0.01 | [5] -0.001 | [6] -0.036 | givinostat 0.017 | barasertib 0.002

PHB2 (UniProt Q99623)
inactive: [1] 0.004 | [2] 0.02 | [3] -0.012 | [4] 0.036 | Nexturastat A -0.108 | vemurafenib -0.024 | [5] -0.017 | [6] -0.023 | givinostat -0.013 | barasertib -0.007

PIGS (UniProt Q96S52)
inactive: [1] -0.025 | [2] 0.007 | [3] -0.033 | [4] -0.003 | Nexturastat A 0.037 | vemurafenib 0.026 | [5] 0.001 | [6] 0.002 | givinostat 0.033 | barasertib 0.027

PFAS (UniProt O15067)
inactive: [1] -0.056 | [2] -0.119 | [3] 0.172 | [4] 0.002 | Nexturastat A -0.081 | vemurafenib 0.032 | [5] -0.003 | [6] -0.039 | givinostat 0.05 | barasertib 0.061

PIP4K2C (UniProt Q8TBX8)
inactive: [1] -0.003 | [2] -0.06 | [3] 0.073 | [4] 0.007 | Nexturastat A -0.046 | vemurafenib -0.035 | [5] 0 | [6] -0.029 | givinostat -0.047 | barasertib -0.016

PIGB (UniProt Q92521)
inactive: [1] -0.107 | [2] -0.001 | [3] -0.006 | [4] -0.012 | Nexturastat A 0.083 | [5] 0.009 | [6] 0.07 | givinostat -0.01

PKM isoform 2 (UniProt P14618)
inactive: [1] -0.13 | [2] -0.082 | [3] 0.049 | [4] 0.033 | Nexturastat A 0.267 | vemurafenib 0.088 | [5] 0.094 | [6] 0.056 | barasertib -0.005

PIK3CD (UniProt O00329)
inactive: [1] 0.042 | [2] 0.079 | [3] 0.018 | [4] -0.04 | Nexturastat A -0.1 | vemurafenib -0.051 | [5] -0.156 | givinostat -0.013 | barasertib 0.096

PIGW (UniProt Q7Z7B1)
inactive: [1] -0.064 | [3] 0.048 | Nexturastat A -0.056 | vemurafenib -0.033 | [5] 0.057 | [6] -0.015 | givinostat 0.029 | barasertib 0.123

PHKA1 (UniProt P46020)
inactive: [1] -0.027 | [2] -0.155 | [3] -0.062 | [4] -0.033 | Nexturastat A 0.047 | [5] 0.019 | [6] 0.076 | givinostat -0.024 | barasertib -0.133

PIP5K1A (UniProt Q99755)
inactive: [1] -0.157 | [2] 0.154 | [3] -0.083 | [4] -0.152 | Nexturastat A 0.122 | vemurafenib -0.04 | [5] 0.007 | [6] -0.06 | barasertib 0.127

PICK1 (UniProt Q9NRD5)
inactive: [1] -0.283 | [2] 0.051 | Nexturastat A -0.024 | [6] -0.132

PKP3 isoform 2 (UniProt Q9Y446)
inactive: [1] -0.026 | [2] -0.031 | [3] 0.045 | [4] -0.057 | Nexturastat A 0.489 | vemurafenib 0.075 | [5] -0.004 | [6] 0.176 | barasertib 0.092

PIK3CA (UniProt P42336)
inactive: [1] -0.016 | [2] -0.069 | Nexturastat A 0.182 | [6] 0.016 | givinostat -0.011 | barasertib -0.006

Copied from the listing (6 entries):
PIGW (UniProt Q7Z7B1)
inactive: [1] -0.064 | [3] 0.048 | Nexturastat A -0.056 | vemurafenib -0.033 | [5] 0.057 | [6] -0.015 | givinostat 0.029 | barasertib 0.123

PHKA1 (UniProt P46020)
inactive: [1] -0.027 | [2] -0.155 | [3] -0.062 | [4] -0.033 | Nexturastat A 0.047 | [5] 0.019 | [6] 0.076 | givinostat -0.024 | barasertib -0.133

PIP5K1A (UniProt Q99755)
inactive: [1] -0.157 | [2] 0.154 | [3] -0.083 | [4] -0.152 | Nexturastat A 0.122 | vemurafenib -0.04 | [5] 0.007 | [6] -0.06 | barasertib 0.127

PICK1 (UniProt Q9NRD5)
inactive: [1] -0.283 | [2] 0.051 | Nexturastat A -0.024 | [6] -0.132

PKP3 isoform 2 (UniProt Q9Y446)
inactive: [1] -0.026 | [2] -0.031 | [3] 0.045 | [4] -0.057 | Nexturastat A 0.489 | vemurafenib 0.075 | [5] -0.004 | [6] 0.176 | barasertib 0.092

PIK3CA (UniProt P42336)
inactive: [1] -0.016 | [2] -0.069 | Nexturastat A 0.182 | [6] 0.016 | givinostat -0.011 | barasertib -0.006

More results.

PHF10 (UniProt Q8WUB8)
inactive: [1] 0.072 | [2] 0.045 | [3] -0.047 | [4] -0.099 | Nexturastat A 0.179 | vemurafenib 0.01 | [5] 0.035 | givinostat 0 | barasertib -0.042

PLD6 (UniProt Q8N2A8)
inactive: [1] -0.003 | [3] -0.252 | [4] -0.136 | Nexturastat A 0.147 | vemurafenib 0.121 | [5] -0.135

PGS1 (UniProt Q32NB8)
inactive: [1] 0.03 | [3] -0.031 | [4] 0.056 | Nexturastat A -0.109 | vemurafenib -0.041 | [5] -0.026 | [6] 0 | givinostat 0.013 | barasertib 0

PHC2 isoform 5 (UniProt Q8IXK0)
inactive: [1] 0.046 | [2] 0.133 | [4] -0.013 | Nexturastat A 0.052 | vemurafenib 0.155 | [6] -0.116 | barasertib -0.517

PHC3 isoform 7 (UniProt Q8NDX5)
inactive: [1] 0.102 | [3] 0.088 | [4] 0.266 | Nexturastat A -0.43 | [5] 0.096 | [6] 0.116 | givinostat 0.17 | barasertib 0

PIGA (UniProt P37287)
inactive: [1] -0.055 | [2] 0.039 | [3] -0.005 | [4] -0.033 | Nexturastat A -0.07 | vemurafenib -0.055 | [5] 0.034 | [6] -0.038 | givinostat -0.047 | barasertib 0.017

PFN1 (UniProt I3L3D5)
inactive: [1] -0.26 | [2] 0.161 | [3] -0.087 | [4] -0.303 | Nexturastat A 0.178 | [5] -0.148 | [6] -0.252 | givinostat 0.073 | barasertib 0.032
